Drawing on PubChem BioAssay AID2685 (National Center for Advancing Translational Sciences (NCATS), 2010), this text covers cell number change and AC50 for 58 molecules.

This test is described as follows: qHTS Assay for Lipid Storage Modulators in Drosophila S3 Cells.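 On cell number change: cells counted by Cell Tracker Red CMTPX staining in the red channel.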 The conditions noted are these: BODIPY lipid droplet fluorescence, 18-24 h; for cell number change: measured here: cell count max response, cells fed with added oleic acid. The gist of the method: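 Drosophila S3 cells loaded with oleic acid (400 uM, as added) and compounds at several concentrations; lipid droplets imaged by 488-nm laser-scanning cytometry, 500–530 nm intensity and object ratio to cell channel. Percent activity normalized to 20 uM Triacsin C.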

The mark [1] stands for this setting: measured here: cell number channel AC50, cells fed with added oleic acid.
Setting [2] is: measured here: lipid fluorescence (Fed channel) AC50, cells fed with added oleic acid.

This is one part of the list. The main result of the screen is listed elsewhere. These columns were measured beside it and carry no call. The list favours compounds with an active or inconclusive main result. Potencies come from curve fits of mixed quality, noted in brackets.

As to `COCCn1c(CN2CCN(C(c3ccccc3)c3ccccc3)CC2)nc2c1c(=O)n(C)c(=O)n2C`, the cell number change was -38.9%. Also, the AC50 under setting [1] was 3.66 µM [falling, single point]. In addition, the AC50 under setting [2] is 0.116 µM [falling, full curve, poor fit].
`Cc1ccc(CNC(=O)c2ccc(N3CCC4(CC3)CC(c3ccccc3)=NO4)c(N)c2)cc1`: the cell number change was -10.2%. The AC50 under setting [2] is 1.03 µM [falling, full curve, poor fit].
Turning to `COc1ccc2oc(C(=O)OCC(=O)N(C)CC(=O)Nc3ccc(F)cc3)c(C)c2c1`, the cell number change is -16%. Moreover, the AC50 under setting [1] was 0.092 µM [falling, full curve, poor fit]. Besides, the AC50 under setting [2] is 0.058 µM [falling, full curve].
Take `Cc1cccc(NC(=O)CNC(=O)CSc2nc(N)cc(N)n2)c1C`: the cell number change was found to be 18%.
For the molecule `CCOC(=O)c1sc2ncnc(N3CCN(C(=O)OCC)CC3)c2c1C`, the AC50 under setting [2] was 7.31 µM [rising, partial curve].
With `COc1cc(C2c3c(oc4ccc(Cl)cc4c3=O)C(=O)N2Cc2ccco2)cc(OC)c1OC` (centres undefined), the cell number change worked out at 0.622%.
On to `COCCCn1c(SCC(=O)NC2CCCCC2)nc2ccccc2c1=O`, for which the cell number change was -17.1%. For the same molecule, the AC50 under setting [2] was 6.51 µM [falling, single point].
`COc1cc(C(=O)O/N=C2/C=C(C)C(=O)C=C2C)cc(OC)c1OC`: the cell number change is 10.9%. Moreover, the AC50 under setting [2] is 29.1 µM [rising, single point].
Consider `CC(C)C(c1nnnn1Cc1ccc(F)cc1)N1CCN(c2ccc(O)cc2)CC1` (centres undefined), for which the cell number change is -6.68%.
As to `O=c1[nH]c2cc([N+](=O)[O-])c(NCCO)c([N+](=O)[O-])c2[nH]1`, the cell number change was -35.6%. Besides, the AC50 under setting [1] was 1.03 µM [falling, full curve].
As for `COc1ccccc1-c1c(C)[nH]n2c(=O)c(Cc3ccccc3)c(C)nc12`, the cell number change was -41.8%. For the same molecule, the AC50 under setting [1] is 29.1 µM [falling, single point]. Under setting [2], the AC50 is 25.9 µM [falling, partial curve, poor fit].
Regarding `CN1CCC/C1=C/C=C1\SC(=S)NC1=O`, the cell number change is -20.5%. In addition, the AC50 under setting [2] was 14.6 µM [falling, single point].
Take `Cc1c(N=Cc2cc(Br)cc(Br)c2O)cccc1C(=O)O`: the cell number change stood at 30.4%. Moreover, the AC50 under setting [1] is 2.06 µM [rising, full curve, poor fit].
As for `C=CCNC(=S)N/N=C/c1ccc(C)c([N+](=O)[O-])c1`, the cell number change stood at 21.3%. Besides, under setting [2], the AC50 was 4.61 µM [rising, partial curve].
`COc1ccc(N(CC(=O)Nc2cc(Cl)ccc2OC)S(=O)(=O)c2c(C)noc2C)cc1`: the cell number change is -7.44%. In addition, the AC50 under setting [1] is 1.3 µM [rising, partial curve]. The AC50 under setting [2] was 2.59 µM [rising, partial curve].
Consider `Cc1noc2ncnc(N3CCCC3)c12`, for which the cell number change was -3.34%.
As for `O=C(c1cc(-c2ccccc2Cl)nc2ccccc12)N1CCOCC1`, the cell number change came out at 7.11%. Further, the AC50 under setting [2] was 0.13 µM [rising, partial curve, poor fit].
As for `CCC1(c2ccc(F)cc2)NC(=O)N(CC(=O)Nc2cccc(S(=O)(=O)N3CCCCC3)c2)C1=O` (centres undefined), the cell number change is -9%. In addition, under setting [2], the AC50 is 18.4 µM [falling, partial curve, poor fit].
Consider `CCCN1CCN(S(=O)(=O)c2c(C)[nH]c(C)c2C(=O)N2CCCCC2)CC1`, for which the cell number change was -1.81%. Besides, under setting [2], the AC50 is 29.1 µM [rising, single point].
Turning to `O=C(c1c(F)cccc1F)N1CCCc2ccccc21`, the cell number change was -11.7%. Moreover, the AC50 under setting [2] was 10.3 µM [rising, single point].
As to `CC(Sc1nnc(Cc2cccs2)n1C1CC1)C(=O)NC1CCS(=O)(=O)C1` (centres undefined), the cell number change was -25%. Also, the AC50 under setting [1] was 5.17 µM [rising, partial curve].
For the molecule `Cc1cc(C)cc(-n2ncc3c2CCCC3NC(=O)c2cc(C)n(C)n2)c1` (centres undefined), the cell number change is -7.03%. In addition, under setting [2], the AC50 is 0.184 µM [falling, full curve].
For the molecule `Cc1ccccc1NC(=O)CCC(=O)OCC(=O)c1ccc(-c2ccccc2)cc1`, the cell number change was -18.8%. For the same molecule, under setting [2], the AC50 is 10.3 µM [falling, partial curve].
Turning to `COC(=O)c1cc2n(n1)CCN(Cc1ccccc1Cl)C2=O`, the cell number change is -0.938%. For the same molecule, the AC50 under setting [1] was 0.00461 µM [falling, full curve, poor fit]. The AC50 under setting [2] was 16.4 µM [falling, single point].
On to `Cc1cc(C(=O)N/N=C/c2ccc(-c3cccc([N+](=O)[O-])c3)o2)n[nH]1`, for which the cell number change worked out at 18.5%. In addition, under setting [2], the AC50 was 29.1 µM [falling, single point].
Regarding `O=C(O)c1ccc(Nc2ncnc3scc(-c4ccccc4)c23)cc1`, the cell number change was found to be 0.241%. In addition, the AC50 under setting [2] is 0.00461 µM [falling, full curve, poor fit].
For `COc1ccc(O)c(C(=O)c2cnc3c(c2)c(C)nn3C)c1`, the cell number change was found to be 25.4%. The AC50 under setting [2] was 29.1 µM [rising, partial curve].
Regarding `CC1CC(C)(C)NC(=S)N1CCC(=O)NCc1ccc(F)cc1` (centres undefined), the cell number change is -63.6%. Besides, the AC50 under setting [1] was 5.17 µM [falling, partial curve, poor fit].
Regarding `NS(=O)(=O)c1ccc(CNc2nc(-c3cccnc3)nc3ccccc23)cc1`, the cell number change is -18.4%. In addition, the AC50 under setting [2] was 5.62 µM [falling, single point].
`Cc1ccc(NC(=O)CSc2nccn2Cc2ccco2)c(C)c1`: the cell number change came out at 26.4%. Besides, under setting [2], the AC50 is 0.562 µM [rising, single point].
`CCOCCc1c(O)nc(SC)[nH]c1=O`: the cell number change is -52.6%. Under setting [1], the AC50 was 29.1 µM [falling, single point]. In addition, the AC50 under setting [2] was 29.1 µM [falling, single point].
Take `Clc1cccc(Cl)c1C1Nc2cccc3cccc(c23)N1`: the cell number change was -59.3%. Also, the AC50 under setting [1] was 1.46 µM [falling, full curve].
In the case of `Cc1cccc(-n2nnc(C(=O)NCc3ccco3)c2N)c1`, the cell number change worked out at 19.3%. Also, the AC50 under setting [2] is 29.1 µM [rising, single point].
As for `CCOC(=O)c1[nH]cnc1C(=O)N1CCC(C)CC1`, the cell number change stood at 1.47%. The AC50 under setting [2] is 0.00461 µM [rising, full curve, poor fit].
Regarding `CC1CCC2(CC1)NC(=O)N(NC(=O)CCc1c[nH]c3ccccc13)C2=O` (centres undefined), the AC50 under setting [2] is 29.1 µM [falling, single point].
`CCCCOC(=O)C1=C(N)N2C(=O)C(C)SC2=C(C(=O)OCC)C1c1ccc(O)c(OC)c1` (centres undefined): the cell number change amounted to 4.38%. Besides, the AC50 under setting [2] was 0.731 µM [rising, full curve, poor fit].
In the case of `COc1ccc(-c2sc(C(=O)c3ccc(Cl)cc3Cl)cc2CC(=O)O)cc1`, the cell number change was 73.9%. The AC50 under setting [1] was 29.1 µM [rising, single point]. The AC50 under setting [2] is 29.1 µM [rising, single point].
In the case of `COc1ccc(N(CC(=O)N2CCN(C)CC2)S(C)(=O)=O)cc1OC`, the cell number change is -56.1%. For the same molecule, the AC50 under setting [1] was 0.82 µM [falling, full curve]. In addition, the AC50 under setting [2] is 0.517 µM [falling, full curve].
Turning to `CCCCn1c(N)c(N(CCC(C)C)C(=O)c2cc(-c3ccco3)nc3ccccc23)c(=O)[nH]c1=O`, the AC50 under setting [2] is 0.58 µM [falling, full curve].
`Cc1ccc(-c2nnn(CC(=O)N(CCCO)C(C(=O)NC3CCCC3)c3ccc(F)cc3)n2)o1` (centres undefined): the cell number change was 1.32%. Besides, under setting [2], the AC50 was 0.562 µM [falling, full curve, poor fit].
Consider `CN(C)C(=O)CSc1nnc(-c2ccncc2)n1Cc1ccco1`, for which the AC50 under setting [2] is 6.51 µM [falling, single point].
Consider `O=C(O)c1ccccc1SC1CC(=O)N(c2ccc3c(c2)OCO3)C1=O` (centres undefined), for which the cell number change was 67.3%. For the same molecule, the AC50 under setting [1] is 18.4 µM [rising, single point].
On to `CCCCCCOC(=O)c1ccc(OC(=O)c2cccnc2)cc1`, for which the cell number change stood at 20%. Also, the AC50 under setting [2] is 4.11 µM [falling, partial curve].
In the case of `O=[N+]([O-])c1c(NCCCO)cc(Sc2nc3ccccc3s2)c2nonc12`, the cell number change was -27.6%.
For the molecule `S=C(Nc1ccc2nc(-c3ccccn3)c(-c3ccccn3)nc2c1)N1CCCCCC1`, the cell number change is 12.2%.
For `CC(C)C[C@@]12C(=O)N(c3cccc(Cl)c3)C(=O)N1[C@H](c1ccc(Br)cc1)[C@@H]1C(=O)N(C(C)(C)C)C(=O)[C@@H]12`, the cell number change stood at 32.1%. For the same molecule, the AC50 under setting [1] was 14.6 µM [rising, single point].
As to `N#CCNC(=O)C1CC(=O)N(CCc2ccc(F)cc2)C1` (centres undefined), the cell number change was 6.45%.
In the case of `N#CC1C=Cc2ccccc2N1C(=O)c1ccccc1` (centres undefined), the cell number change is 42.8%. Also, under setting [2], the AC50 was 13 µM [rising, partial curve].
In the case of `O=C(c1cc(C(=O)c2ccco2)cc(C(=O)c2ccco2)c1)c1ccco1`, the cell number change was determined as 17.4%. Besides, under setting [1], the AC50 is 0.291 µM [rising, full curve, poor fit].
On to `COc1cc2c(=O)n(CC3CCCO3)c(=O)n(CC(=O)Nc3ccc(F)cc3F)c2cc1OC` (centres undefined), for which the cell number change was determined as 53.9%. In addition, under setting [1], the AC50 was 16.4 µM [rising, partial curve]. The half-maximal activity concentration (AC50) under setting [2] was 9.2 µM [rising, partial curve, poor fit].
With `CCN(CC)CCN(C(=O)c1ccc2c(c1)CCCC2)c1nc2c(C)cccc2s1`, the cell number change was determined as 38.2%. Moreover, the AC50 under setting [1] is 12.6 µM [rising, partial curve, poor fit]. Under setting [2], the half-maximal activity concentration (AC50) is 10 µM [rising, partial curve, poor fit].
`O=C(NCC(=O)N1CCN(C(=O)c2ccco2)CC1)c1cccc(Cl)c1`: the cell number change was found to be 2.07%. In addition, under setting [2], the AC50 is 13 µM [rising, partial curve, poor fit].
For the molecule `CCOCC(O)CS(=O)(=O)c1ccccn1` (centres undefined), the cell number change was -13.9%. Further, the AC50 under setting [2] was 1.84 µM [falling, full curve].
For the molecule `O=C(Nc1nccs1)C1CC(=O)N(c2ccccc2Cl)C1` (centres undefined), the cell number change stood at 52%. Under setting [1], the concentration at half-maximal activity (AC50) was 6.51 µM [falling, single point]. Moreover, the AC50 under setting [2] was 6.51 µM [falling, single point].
In the case of `CC(=O)Nc1ccc(NC(=O)c2cccc(S(=O)(=O)N(C)C3CCCCC3)c2)cc1`, the cell number change was -6.16%. The AC50 under setting [2] is 0.146 µM [falling, partial curve, poor fit].
Regarding `Cc1ccc(-c2cc(C(=O)NC3CCCCC3)no2)cc1`, the cell number change was 13.2%.
Consider `Cc1ccccc1C(=O)NC(CC(C)C)C(=O)N1CCN(c2ccccc2)CC1` (centres undefined), for which the cell number change is -8.11%. Further, the AC50 under setting [2] is 0.13 µM [falling, full curve, poor fit].
In the case of `CCOc1ccc2oc(C(=O)N(C)CC(=O)Nc3ccc(OCC)c(OCC)c3)c(C)c2c1`, the AC50 under setting [2] is 0.259 µM [rising, full curve, poor fit].
